{
  "source": "the supplement of paper PMC8728848",
  "binders": {"B1": {"name": "Agalectin (Anopheles gambiae) (protein)", "chain": "MSNRPFTAKFPRYPENGDEVFIRGKLKDDAKSFSVNFCLPRPAQVAEHQTPPYIALHFKTIYDERDDTSRVVLNWKNLQWQQEEVLDNYWHVDRSQTFRVVFRLHEDCIKVFVNSVDHPPDYQFPVQLPLDQIESIELWDDVEHVEEISFRYDNGNSY"}},
  "experiment_in_all_cases": "glycan array binding signal (z-score within array); higher = stronger binding",
  "conditions_in_all_cases": "glycan notation: IUPAC condensed, linker removed",
  "key": {"[1]": {"target": "Fuc(a1-2)Gal(b1-4)GlcNAc(b1-3)Gal(b1-4)GlcNAc(b1-3)Gal(b1-4)GlcNAc", "procedure,_shortened": "(§1)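 The binding signal is a Z-score computed within each array and averaged over linkers. Arrays of the same protein sequence at different concentrations or buffers were also averaged together. Data originate from 3228 arrays in the Consortium for Functional Glycomics database, kept only where the protein sequence was available.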"}, "[2]": {"target": "Fuc(a1-2)Gal(b1-4)GlcNAc(b1-3)GalNAc", "procedure,_shortened": "as §1"}, "[3]": {"target": "Fuc(a1-2)Gal(b1-4)GlcNAc(b1-3)[Fuc(a1-2)Gal(b1-4)GlcNAc(b1-6)]GalNAc", "procedure,_shortened": "as §1"}, "[4]": {"target": "Fuc(a1-2)Gal(b1-4)GlcNAc(b1-3)[Fuc(a1-3)[Gal(b1-4)]GlcNAc(b1-6)]Gal(b1-4)Glc", "procedure,_shortened": "as §1"}, "[5]": {"target": "Fuc(a1-2)Gal(b1-4)GlcNAc(b1-6)GalNAc", "procedure,_shortened": "as §1"}, "[6]": {"target": "Fuc(a1-2)Gal(b1-4)GlcNAc6S", "procedure,_shortened": "as §1"}, "[7]": {"target": "Fuc(a1-2)Gal(b1-4)[Fuc(a1-3)]GlcNAc", "procedure,_shortened": "as §1"}, "[8]": {"target": "Fuc(a1-2)Gal(b1-4)[Fuc(a1-3)]GlcNAc(b1-2)Man(a1-3)[Fuc(a1-2)Gal(b1-4)[Fuc(a1-3)]GlcNAc(b1-2)Man(a1-6)]Man(b1-4)GlcNAc(b1-4)[Fuc(a1-6)]GlcNAc", "procedure,_shortened": "as §1"}, "[9]": {"target": "Fuc(a1-2)Gal(b1-4)[Fuc(a1-3)]GlcNAc(b1-2)[Fuc(a1-2)Gal(b1-4)[Fuc(a1-3)]GlcNAc(b1-4)]Man(a1-3)[Fuc(a1-2)Gal(b1-4)[Fuc(a1-3)]GlcNAc(b1-2)Man(a1-6)]Man(b1-4)GlcNAc(b1-4)GlcNAc", "procedure,_shortened": "as §1"}, "[10]": {"target": "Fuc(a1-2)Gal(b1-4)[Fuc(a1-3)]GlcNAc(b1-3)Gal(b1-4)[Fuc(a1-3)]GlcNAc", "procedure,_shortened": "as §1"}, "[11]": {"target": "Fuc(a1-2)Gal(b1-4)[Fuc(a1-3)]GlcNAc(b1-3)Gal(b1-4)[Fuc(a1-3)]GlcNAc(b1-3)Gal(b1-4)[Fuc(a1-3)]GlcNAc", "procedure,_shortened": "as §1"}, "[12]": {"target": "Fuc(a1-2)Gal(b1-4)[Fuc(a1-3)]GlcNAc(b1-3)GalNAc", "procedure,_shortened": "as §1"}, "[13]": {"target": "Fuc(a1-2)Gal(b1-4)[Fuc(a1-3)]GlcNAc(b1-3)[Neu5Ac(a2-6)Gal(b1-4)GlcNAc(b1-6)]Gal(b1-4)Glc", "procedure,_shortened": "as §1"}, "[14]": {"target": "Fuc(a1-2)Gal3S(b1-4)GlcNAc", "procedure,_shortened": "as §1"}, "[15]": {"target": "Fuc(a1-2)Gal6S(b1-3)GlcNAc", "procedure,_shortened": "as §1"}, "[16]": {"target": "Fuc(a1-2)Gal6S(b1-3)GlcNAc6S", "procedure,_shortened": "as §1"}, "Fuc(a1-2)Gal6S(b1-4)Glc": {"target": "Fuc(a1-2)Gal6S(b1-4)Glc", "procedure,_shortened": "as §1"}, "[17]": {"target": "Fuc(a1-2)Gal6S(b1-4)Glc6S", "procedure,_shortened": "as §1"}, "Fuc(a1-2)[Gal(a1-3)]Gal": {"target": "Fuc(a1-2)[Gal(a1-3)]Gal", "procedure,_shortened": "as §1"}, "[18]": {"target": "Fuc(a1-2)[Gal(a1-3)]Gal(b1-3)GalNAc", "procedure,_shortened": "as §1"}, "[19]": {"target": "Fuc(a1-2)[Gal(a1-3)]Gal(b1-3)GalNAc(b1-3)Gal(a1-4)Gal(b1-4)Glc", "procedure,_shortened": "as §1"}, "[20]": {"target": "Fuc(a1-2)[Gal(a1-3)]Gal(b1-3)GlcNAc", "procedure,_shortened": "as §1"}, "[21]": {"target": "Fuc(a1-2)[Gal(a1-3)]Gal(b1-3)GlcNAc(b1-2)Man(a1-3)[Fuc(a1-2)[Gal(a1-3)]Gal(b1-3)GlcNAc(b1-2)Man(a1-6)]Man(b1-4)GlcNAc(b1-4)GlcNAc", "procedure,_shortened": "as §1"}, "[22]": {"target": "Fuc(a1-2)[Gal(a1-3)]Gal(b1-3)GlcNAc(b1-2)Man(a1-3)[Fuc(a1-2)[Gal(a1-3)]Gal(b1-3)GlcNAc(b1-2)Man(a1-6)]Man(b1-4)GlcNAc(b1-4)[Fuc(a1-6)]GlcNAc", "procedure,_shortened": "as §1"}, "[23]": {"target": "Fuc(a1-2)[Gal(a1-3)]Gal(b1-3)GlcNAc(b1-3)GalNAc", "procedure,_shortened": "as §1"}, "[24]": {"target": "Fuc(a1-2)[Gal(a1-3)]Gal(b1-3)GlcNAc(b1-6)GalNAc", "procedure,_shortened": "as §1"}, "[25]": {"target": "Fuc(a1-2)[Gal(a1-3)]Gal(b1-4)Glc", "procedure,_shortened": "as §1"}, "[26]": {"target": "Fuc(a1-2)[Gal(a1-3)]Gal(b1-4)GlcNAc", "procedure,_shortened": "as §1"}, "[27]": {"target": "Fuc(a1-2)[Gal(a1-3)]Gal(b1-4)GlcNAc(b1-2)Man", "procedure,_shortened": "as §1"}, "[28]": {"target": "Fuc(a1-2)[Gal(a1-3)]Gal(b1-4)GlcNAc(b1-2)Man(a1-3)[Fuc(a1-2)[Gal(a1-3)]Gal(b1-4)GlcNAc(b1-2)Man(a1-6)]Man(b1-4)GlcNAc(b1-4)GlcNAc", "procedure,_shortened": "as §1"}},
  "note": "Some of the results follow.",
  "data": [
    {"binder": "B1", "values": [
      {"measurement": "glycan array binding signal (z-score)", "setting": "[1]", "value": -0.467},
      {"measurement": "glycan array binding signal (z-score)", "setting": "[2]", "value": -0.305},
      {"measurement": "glycan array binding signal (z-score)", "setting": "[3]", "value": -0.321},
      {"measurement": "glycan array binding signal (z-score)", "setting": "[4]", "value": -0.633},
      {"measurement": "glycan array binding signal (z-score)", "setting": "[5]", "value": 0.946},
      {"measurement": "glycan array binding signal (z-score)", "setting": "[6]", "value": -0.769},
      {"measurement": "glycan array binding signal (z-score)", "setting": "[7]", "value": -0.803},
      {"measurement": "glycan array binding signal (z-score)", "setting": "[8]", "value": 2.19},
      {"measurement": "glycan array binding signal (z-score)", "setting": "[9]", "value": 1.22},
      {"measurement": "glycan array binding signal (z-score)", "setting": "[10]", "value": -0.345},
      {"measurement": "glycan array binding signal (z-score)", "setting": "[11]", "value": -0.318},
      {"measurement": "glycan array binding signal (z-score)", "setting": "[12]", "value": 0.822},
      {"measurement": "glycan array binding signal (z-score)", "setting": "[13]", "value": -0.54},
      {"measurement": "glycan array binding signal (z-score)", "setting": "[14]", "value": -0.976},
      {"measurement": "glycan array binding signal (z-score)", "setting": "[15]", "value": -0.827},
      {"measurement": "glycan array binding signal (z-score)", "setting": "[16]", "value": -0.208},
      {"measurement": "glycan array binding signal (z-score)", "setting": "Fuc(a1-2)Gal6S(b1-4)Glc", "value": 0.173},
      {"measurement": "glycan array binding signal (z-score)", "setting": "[17]", "value": -0.237},
      {"measurement": "glycan array binding signal (z-score)", "setting": "Fuc(a1-2)[Gal(a1-3)]Gal", "value": -0.443},
      {"measurement": "glycan array binding signal (z-score)", "setting": "[18]", "value": 0.376},
      {"measurement": "glycan array binding signal (z-score)", "setting": "[19]", "value": -1.86},
      {"measurement": "glycan array binding signal (z-score)", "setting": "[20]", "value": -0.323},
      {"measurement": "glycan array binding signal (z-score)", "setting": "[21]", "value": 0.388},
      {"measurement": "glycan array binding signal (z-score)", "setting": "[22]", "value": 0.006},
      {"measurement": "glycan array binding signal (z-score)", "setting": "[23]", "value": 0.022},
      {"measurement": "glycan array binding signal (z-score)", "setting": "[24]", "value": -0.263},
      {"measurement": "glycan array binding signal (z-score)", "setting": "[25]", "value": 0.207},
      {"measurement": "glycan array binding signal (z-score)", "setting": "[26]", "value": 0.173},
      {"measurement": "glycan array binding signal (z-score)", "setting": "[27]", "value": -1.1},
      {"measurement": "glycan array binding signal (z-score)", "setting": "[28]", "value": 0.357}
    ]}
  ]
}
